Where a name gives a salt, the structure may show the parent alone.
Experiment: NCI COMPARE analysis (TGI correlation)
Details: STANDARD_AGENTS_TGI; 2 days

| Structure (SMILES) | Correlation (TGI endpoint) with seed S747157 (AAG1) |
| --- | --- |
| COc1cc2cc(c1Cl)N(C)C(=O)C[C@H](OC(=O)[C@H](C)N(C)C(C)=O)[C@]1(C)O[C@H]1[C@H](C)[C@@H]1C[C@@](O)(NC(=O)O1)[C@H](OC)/C=C/C=C(\C)C2 [maytansine] | 0.494 |
| CC[C@]1(O)C[C@H]2CN(CCc3c([nH]c4ccccc34)[C@@](C(=O)OC)(c3cc4c(cc3OC)N(C=O)[C@H]3[C@@](O)(C(=O)OC)[C@H](OC(C)=O)[C@]5(CC)C=CCN6CC[C@]43[C@@H]65)C2)C1 [vincristine sulfate] | 0.600 |

From patent US20140303188A1, “Substituted Cyclopenta Pyrimidine Bicyclic Compounds Having Antitmitotic And/Or Antitumor Activity And Methods Of Use Thereof” (DUQUESNE UNIVERSITY OF THE HOLY SPIRIT, priority 2008, published 2014)
